Experimental data: PubChem BioAssay AID1508600 (Functional Genomics Laboratory (NCATS/FGL), 2020)
In all, about 53,000 sequences went through this assay and about 3,700 (7%) were called active.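 How the source made its calls: active means gene knockdowns whose robust z-score for IL-1 alpha signal is at least 2 or at most -2, so actives lie on both sides; inactive means the rest.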 This is one part of the list.

Assay: Components of the Cytosolic LPS Sensing Pathway: Gene Identification via Genome-wide siRNA Screen;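 further: robust z of the log signal after scaling to non-targeting control siRNA wells of the plate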
Conditions: RAW264.7 macrophages, IL-1a HTRF, actives lie on both sides, screened at 100 nM (by protocol), cells primed 5 h with Pam3CSK4 first
Summary of the method: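 Three distinct siRNAs per gene were tested singly at 100 nM in RAW264.7 macrophages. Following Pam3CSK4 priming and 24 hour LipidA transfection, IL-1a secretion was read by HTRF.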

Sequence	z-score
GGUUCUUCAAGUCAGAUUUTT against Atp6v1b1	inactive: 0.196
GCAAUGGAGAGCAGAAAUATT against C230012O17Rik	inactive: 0.767
GCCUUCUUAAGCUCUGAGCTT against Dhrs13	active: -2.97
GCUUUGUGCCAUCUCUACATT against Tlr13	inactive: -0.724
GUCAUGAAUGGGCUACUAATT against Olfr1447	inactive: -0.903
CCAUGGUCUUGAAUUAUUCTT against Syt4	inactive: -0.242
CGUAGUGUUCUGUGUUUAUTT against Mif	inactive: 1.36
GCCUAAGAUCUGGACCUAATT against Timm44	inactive: -0.35
GCAAUACUCUGGUACUAGATT against Zfp938	inactive: 0.784
GGUCUUUUGUUACCUUAGUTT against Sult1b1	inactive: 0.428
GCUAGAAGUAGAGAAUCAGTT against Plekhh2	inactive: 0.629
GGAAGAGAACAACAUCUUUTT against Nsun4	inactive: -0.56
GGUGAUGUGGAAUAAAUUGTT against Odf4	inactive: -1.62
GCAAUUGAUUGACUGAGAATT against Calm3	inactive: -0.79
CCCAUACAGUGUGGUAUUUTT against Miga2	inactive: -1.56
GGCAGAAACGUGUCACCAUTT against Tsx	inactive: -1.13
CCUACAGAGUACAGAUUAUTT against Atp6v0d1	inactive: -0.228
GGCUCUGGGUCAACAUUUGTT against 2310011J03Rik	inactive: 0.387
GGACCAAGAGAUUUGCUAUTT against Abcc2	inactive: 0.535
CCAGGGUUUAGCCUUUUGATT against Tmem252	inactive: -0.309
GGACCUGACUCAGCUCUUUTT against Dpp7	inactive: -0.0514
GCUGAGACAUGUGGAGUAUTT against 4931429L15Rik	inactive: 0.426
GCUAGUUACAUCAUAUGCUTT against Gpr171	inactive: 1.13

Sequence	z-score
GGUCAGGUCUUUUUAUACATT against Zfp354a	active: 2.56
GCUACAAGCUUUUUCAAUUTT against Gm5089	inactive: -0.399
GGAAUCCUGGAUUGAGGAATT against Rhod	inactive: 0.394
GGAGAAGGGUGUUUCAGCUTT against Usp29	inactive: -1.68
GUGUGCCAAAACCGAGAGUTT against Klk1b7-ps	inactive: 0.523
CGCAGUGUAUGAUUAUAUATT against Reep5	inactive: 0.768
CCAAUUACUUGAAUUUAGCTT against Gata5	inactive: 0.13
GGACAAUGCAGCCUACUACTT against Gnaz	inactive: -0.31
GGAGAUUGACUUCAAGGAGTT against S100a5	inactive: -0.307
CCUUCUACUGGCAACCUAUTT against Zfp110	inactive: 0.25
CCCACAUUGCUUACCUUUCTT against Zfp523	inactive: -0.762
CGAAAAUCUUCUGGCUCACTT against Llgl2	inactive: -0.922
GGUCCUACCUUGAAGCUCCTT against Ado	inactive: 0.816
GGACCACCUGAAGAACCACTT against Plagl1	inactive: 1.65
GCUUGUGACUUAGAUUCUUTT against Rab8b	inactive: 1.3
CCCAGGACAUCGUCACAGATT against Prkx	inactive: -0.555
GGGCUUUCAAUGAAUUACGTT against Unk	inactive: -0.615
GGACUACGCAGUCUCUACATT against Ddah1	inactive: 1.77
GGACACCAAAAAUGUAAACTT against Cfap97	inactive: -1.92
CCUAAACUCACUCUUGUGUTT against Chrna6	inactive: -0.000677
GGGUCCUAAGGGAUUUAUUTT against Klf16	inactive: -0.49
GGAAGAGGUGCUACCUCUATT against Utp3	inactive: -0.349
GCUCAUUGCACUUGCCAAGTT against Tcea2	inactive: -0.0377

Copied from the listing for reference:
Sequence	z-score
GGAGAAGGGUGUUUCAGCUTT against Usp29	inactive: -1.68
GUGUGCCAAAACCGAGAGUTT against Klk1b7-ps	inactive: 0.523
CGCAGUGUAUGAUUAUAUATT against Reep5	inactive: 0.768
CCAAUUACUUGAAUUUAGCTT against Gata5	inactive: 0.13
GGACAAUGCAGCCUACUACTT against Gnaz	inactive: -0.31
GGAGAUUGACUUCAAGGAGTT against S100a5	inactive: -0.307

Carrying on.

Sequence	z-score
GCAAGAAAUGGACCGGUAGTT against Timm17a	inactive: -0.882
GGACCGAGCCAGAUUCUUCTT against Gas2l1	inactive: 0.178
GGAUUUCAGCUUCCAUUUUTT against Eif2b2	inactive: -0.0135
GGACCACCUUUUGGACAAATT against Vmn1r198	inactive: 0.93
GGAGGAAGAAAACAUCUCATT against Msh3	inactive: -0.548
GGAGGCUGUUGUGGAUCUUTT against Acin1	inactive: 1.03
CGGUGGCAAAAUGAGAAGUTT against Cd79a	inactive: -0.142
GCAACGAAGACAAAUUAUUTT against Mid1	inactive: -0.402
GCUAUUUCAUUGGUUGGCUTT against Odf4	inactive: -0.304
GGGAAUGGCUAAUGUUUAUTT against Stk38l	active: 2.32
GGAUAGCAGCUGAGUUUUATT against Asb5	active: 2.57
GGCCUCCUAUAGACGGGAUTT against Vdac3	active: 2.49
GGUUUCUGAACAAAGCCAGTT against Mospd1	inactive: -0.167
GGAACAGAUACAGAAAUCCTT against Cstf2	inactive: -0.0131
GCCUUCCGCUACCUUCUUATT against Ccl19	inactive: 0.198
CCUUCUAAUCUUUUUGCCUTT against Polr3k	inactive: 1.86
GGGAUGGACAUCUUGUUUUTT against Eif4a1	inactive: -0.0565
GCUCAUUCUCAAAGGCUUATT against Rdh12	inactive: 0.659
CGGUAUAGUAGAUACUUAATT against Picalm	active: 2.01
GGAGGAGGAAAAGACUUUUTT against Pdzd3	inactive: -0.0553
AGCAGGAGUUCGAACAUGGTT against Hoxb4	inactive: 1.09
CCAUGAGGCGUAUCAUUUUTT against Phlda3	inactive: 1.27
